Results as given in patent US20250003978A1, “DIAGNOSIS AND TREATMENT OF ANTI-PF4 INDUCED THROMBOCYTOPENIA” (The Regents of the University of California, priority 2021, published 2025).
These are yes or no findings as the source states them, for the method shown. Some entries that bind do so weakly or less than the wild type.

Protein sequences, listed by entry. Tags and fused reporters are not part of them. Lines headed by an entry give the natural chain unless they say otherwise; changes in a name come on top.
UniProt P06756: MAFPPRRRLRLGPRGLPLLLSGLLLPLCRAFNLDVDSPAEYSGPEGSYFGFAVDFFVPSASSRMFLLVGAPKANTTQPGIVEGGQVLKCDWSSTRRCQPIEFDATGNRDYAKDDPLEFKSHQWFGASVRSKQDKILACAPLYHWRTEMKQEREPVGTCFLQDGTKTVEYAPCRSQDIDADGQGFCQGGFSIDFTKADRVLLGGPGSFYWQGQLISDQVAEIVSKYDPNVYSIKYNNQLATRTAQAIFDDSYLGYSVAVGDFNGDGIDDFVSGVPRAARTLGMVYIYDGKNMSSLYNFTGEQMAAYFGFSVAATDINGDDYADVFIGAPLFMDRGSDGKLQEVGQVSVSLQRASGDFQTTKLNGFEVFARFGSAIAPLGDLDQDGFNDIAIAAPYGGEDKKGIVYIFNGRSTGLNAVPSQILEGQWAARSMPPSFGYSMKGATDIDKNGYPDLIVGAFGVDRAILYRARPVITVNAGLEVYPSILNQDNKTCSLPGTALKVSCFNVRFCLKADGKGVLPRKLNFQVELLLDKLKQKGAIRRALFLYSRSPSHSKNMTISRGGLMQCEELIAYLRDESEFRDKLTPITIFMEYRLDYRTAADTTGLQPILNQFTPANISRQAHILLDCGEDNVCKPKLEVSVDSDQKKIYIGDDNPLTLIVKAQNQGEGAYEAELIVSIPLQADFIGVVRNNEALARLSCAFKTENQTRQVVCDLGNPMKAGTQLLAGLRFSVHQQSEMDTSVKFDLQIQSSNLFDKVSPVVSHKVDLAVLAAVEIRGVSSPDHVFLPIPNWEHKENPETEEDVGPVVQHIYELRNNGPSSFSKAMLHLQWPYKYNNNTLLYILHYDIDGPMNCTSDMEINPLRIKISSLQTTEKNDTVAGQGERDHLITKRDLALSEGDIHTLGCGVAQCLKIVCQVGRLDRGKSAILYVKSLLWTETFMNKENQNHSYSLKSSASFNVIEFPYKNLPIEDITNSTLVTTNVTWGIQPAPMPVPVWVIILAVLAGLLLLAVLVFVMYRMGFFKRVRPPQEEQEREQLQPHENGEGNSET
UniProt P08514: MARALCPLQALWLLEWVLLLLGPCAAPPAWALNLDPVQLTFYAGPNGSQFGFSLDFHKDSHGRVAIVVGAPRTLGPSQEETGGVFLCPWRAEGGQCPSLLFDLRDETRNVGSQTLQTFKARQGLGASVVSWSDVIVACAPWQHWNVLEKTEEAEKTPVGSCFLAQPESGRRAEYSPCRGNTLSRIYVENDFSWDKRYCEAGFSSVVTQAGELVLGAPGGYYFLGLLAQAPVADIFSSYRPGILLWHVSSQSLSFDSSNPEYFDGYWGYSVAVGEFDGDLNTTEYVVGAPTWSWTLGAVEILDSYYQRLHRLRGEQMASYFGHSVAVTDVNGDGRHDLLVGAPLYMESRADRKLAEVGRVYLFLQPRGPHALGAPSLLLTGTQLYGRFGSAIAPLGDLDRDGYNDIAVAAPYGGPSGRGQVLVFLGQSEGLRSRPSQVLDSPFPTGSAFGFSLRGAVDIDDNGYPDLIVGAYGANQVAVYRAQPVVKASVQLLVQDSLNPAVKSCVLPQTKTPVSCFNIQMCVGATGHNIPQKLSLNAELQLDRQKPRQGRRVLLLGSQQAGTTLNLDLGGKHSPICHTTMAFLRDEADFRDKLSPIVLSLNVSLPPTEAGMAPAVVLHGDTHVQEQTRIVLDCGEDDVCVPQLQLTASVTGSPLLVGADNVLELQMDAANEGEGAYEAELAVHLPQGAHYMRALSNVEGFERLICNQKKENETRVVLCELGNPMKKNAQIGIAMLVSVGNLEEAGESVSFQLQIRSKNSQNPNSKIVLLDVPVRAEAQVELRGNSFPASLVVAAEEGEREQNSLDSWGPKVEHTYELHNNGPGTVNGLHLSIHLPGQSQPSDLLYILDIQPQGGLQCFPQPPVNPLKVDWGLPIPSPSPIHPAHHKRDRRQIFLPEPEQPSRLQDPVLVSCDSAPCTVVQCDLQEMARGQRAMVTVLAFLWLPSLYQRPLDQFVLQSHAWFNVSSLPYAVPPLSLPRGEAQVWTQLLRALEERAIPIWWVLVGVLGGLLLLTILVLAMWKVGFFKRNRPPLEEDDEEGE

Columns and labels:
[1] = target: soluble recombinant integrin αvβ3 (UniProt P06756); assay: ELISA-type binding, cell-free, 1 mM Mn2+
[2] = target: soluble recombinant integrin αIIbβ3 (UniProt P08514); assay: ELISA-type binding, cell-free, 1 mM Mn2+
[3] = target: soluble recombinant integrin αvβ3 (UniProt P06756); assay: ELISA-type binding, authentic PF4 6.25 µg/ml, 1 mM Mn2+
[4] = target: soluble recombinant integrin αIIbβ3 (UniProt P08514); assay: as above
[5] = target: soluble recombinant integrin αvβ3 (UniProt P06756); assay: ELISA-type binding, 1 mM Mn2+
[6] = target: soluble recombinant integrin αIIbβ3 (UniProt P08514); assay: ELISA-type binding, 1 mM Mn2+

Row | binding [1] | binding [2] | binding [3] | binding [4] | binding [5] | binding [6] | Binder
1 | binds | binds |  |  |  |  | PF4 (platelet factor 4, chemokine CXCL4), preparation generated in the inventors' lab (ligand, not shown: small tags and cut ends) EAEEDGDLQCLCVKTTSQVRPRHITSLEVIKAGPHCPTAQLIATLKNGRKICLDLQAPLYKKIIKKLLES
2 |  |  | binds | binds | binds | binds | authentic PF4 (Invitrogen) (ligand, UniProt P02776 32-101, looked up) EAEEDGDLQCLCVKTTSQVRPRHITSLEVIKAGPHCPTAQLIATLKNGRKICLDLQAPLYKKIIKKLLES
